Experimental data as given in the RNAGym collection of RNA variant scans (doi:10.1126/science.aae0568).
This sample is rich in variants without activity.

B1: tRNA (parent)
chain: GUUCCGUUGGCGUAAUGGUAACGCGUCUCCCUCCUAAGGAGAAGACUGCGGGUUCGAGUCCCGUACGGAACG

Variants of: B1
Assay: yeast fitness relative to wild type (ratio to wild type); higher = fitter; tRNA-Arg(CCU), competitive growth, 37 C, YPD
Procedure, shortened: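 Amplicons of the tRNA-Arg(CCU) gene were sequenced, 100-nucleotide paired-end, from the start population and from each end population of a pooled yeast competition. The competition, in six parallel replicates, lasted 24 hours in YPD at 37°C. Fitness relative to wild type was calculated from changes in genotype frequencies. Genotypes had to have ≥ 100 starting reads, and estimates < 0.5 were set to 0.5.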

Variant | yeast fitness
A20U A45G C55U G67A | ≤ 0.5
A42G G56U C61G | ≤ 0.5
U13G A36G G38A A70C | ≤ 0.5
G10A A21G C29A G67C | ≤ 0.5
C34U A69U | 0.667
C5G U47C C66U | 0.627
A21U G23A A37U | ≤ 0.5
A42G G67U | 0.633
C22U U28C C29G C33A G68C | ≤ 0.5
G6A A36U C49G G56C | ≤ 0.5
A14C U32C U35A G44C C66U G67U A70G | ≤ 0.5
C33G C34U U54A C66U | ≤ 0.5
G17C C34U C62U A70U | ≤ 0.5
G10A A57U U59A A65C G67A | ≤ 0.5
U2A G6C C49U | ≤ 0.5
G39C G48C C61U | ≤ 0.5
C5U U35A G56A A65G C66A G68C | ≤ 0.5
U7C C11U A36C A57U C61A C66G | ≤ 0.5
G10A A21U U28A C33U C55A | ≤ 0.5
C4G A45U A65C | ≤ 0.5
C24U A36G A45C A57U C61G | ≤ 0.5
C5U U47A G68C | 0.534

Variant | yeast fitness
A40U A57G U59C U64G | ≤ 0.5
A21G G51C G68C | ≤ 0.5
C5G C34A C49U C60A C61A | ≤ 0.5
G10C C22G C29A C46U | ≤ 0.5
C11G G39C C55U | ≤ 0.5
U16G C30A C46G U54C | ≤ 0.5
C29A A36U G50C C55G C61G | ≤ 0.5
G9C C31G A40C A70U | ≤ 0.5
U3A G6A A42C | ≤ 0.5
C11U U28G G51C U64A C66U A69C | ≤ 0.5
A20C C30U A42G | ≤ 0.5
G12A A57U | 0.668
C24U A37C A40G U54A C61U | ≤ 0.5
C4A G10C G23C C24G A40U G51A A57U | ≤ 0.5
G10C A20G C24U G39C | ≤ 0.5
C11U C34U G48A G56A | ≤ 0.5
G12C C29A A45U | ≤ 0.5
C5G U8C G41A | ≤ 0.5
A36U G68C | 0.698
U16A A37G A43G A65U | ≤ 0.5
G38C U54A C62U | ≤ 0.5
C4A A21C A70C | ≤ 0.5

Variant | yeast fitness
C24U A36U C66A | ≤ 0.5
A20G U28A C62G | ≤ 0.5
C55A G67A | 0.658
A21G A40G A42U A43G A65G | ≤ 0.5
U8A A40G C49G U54A C55A A65G A70U | ≤ 0.5
U3C C27U G50A | 0.648
A14C C31U A36U A70U | ≤ 0.5
A21G U53C G56C | ≤ 0.5
C5U G12A A69C | 0.724
C4G A20C C22U A43U A69C | ≤ 0.5
A21U U26A A37C | ≤ 0.5
C30G A42U A45G A70C | ≤ 0.5
C4U U32A C62G A70U | ≤ 0.5
C29G G38C G44A | 0.668
G9C G12C A40U G41A | ≤ 0.5
U26A G52A | 0.666
C5U A15G C30A C33G A45U U59C | ≤ 0.5
G18A A37G | 0.547
U19C C61U | 0.925
C4U C31G U47C G48C | ≤ 0.5
U2G C11U A15U | ≤ 0.5
U16C A40G A65U | ≤ 0.5

Variant | yeast fitness
U26A A65U C66A | ≤ 0.5
U7C C27A C46A G51A U53A C62A G68A | ≤ 0.5
C11A C31A A45U | ≤ 0.5
C4U G10C A14C A37C A45C | ≤ 0.5
U7A C29U A37C U47C U53A C55U C60A | ≤ 0.5
C5A A21C G67A | ≤ 0.5
A20G C31G C60G G63C | ≤ 0.5
C4A G12C U19C C24G A43U G67A | ≤ 0.5
C24G C27U C33U G50C G68A | ≤ 0.5
C5G U8A A20C C22G G51A C61G | ≤ 0.5
C46U C49U U53C A65U | ≤ 0.5
U2G G12C C49U | ≤ 0.5
C33G A57G C61G G63A A65G C66U | ≤ 0.5
C5G A40U A42G U53G U54A A70U | ≤ 0.5
G48A C55A G56U G58C | ≤ 0.5
A14U A21C G41A | ≤ 0.5
C5G U19C U35A A43C | ≤ 0.5
C4A A14C G38A | ≤ 0.5
C22A C27A G52C | ≤ 0.5
C11G A42C A69G | ≤ 0.5
U8G A15U G41A G50C U53C C60G C62U | ≤ 0.5
G10C G18A C27G G63C | ≤ 0.5

Variant | yeast fitness
C11U A20C C60A | ≤ 0.5
C11U G23C G39U | ≤ 0.5
G10A U13C G18C C61G C66U A69C | ≤ 0.5
C4A C22U C33G A45C C49U U53G A69C | ≤ 0.5
U2A U19A A20C U26A U64C | ≤ 0.5
A20G C46U G63A | 0.82
U3C C4U A14U | ≤ 0.5
G17A C31G U35C G68A | ≤ 0.5
C5G G10C G25A G51A | ≤ 0.5
U7C U32G | 0.576
C22U A37C G41C | ≤ 0.5
A21C U26A C27G G44C C49A U64C | ≤ 0.5
U53A C62G | 0.598
A15C A21C C30U | ≤ 0.5
C22U A37C G58C C61G | ≤ 0.5
C4A A15G C31G G50A | ≤ 0.5
U26C C27G C33G A37U G41A A57G C62G | ≤ 0.5
C30G A57U C60G | ≤ 0.5
